Counter-ions that a name gives are not always drawn. Some results were stated once for a whole list of compounds, not compound by compound. At least one structure is not confirmed: it was looked up by name or label, or the drawing left a doubt.
system: Eimeria tenella GD strains; test: Comparison with other anticoccidial drugs in chickens infected with Eimeria tenella GD (Embodiment 3); format: in vivo; settings: 125 ppm in feed
Text: 1-day-old Lingnan yellow chickens, purchased from Poultry Research Unit, Bureau of Animal Husbandry, Guangdong Academy of Agricultural Sciences, bred under coccidium-free environment, and subjected to experiment after no coccidium oocyst is found in feces through microscopic examination when the chickens are 14 days old. Perfect compound feed for chickens: prepared by Huizhou Yuantai Feed Co. Ltd., and containing no antibacterial or anticoccidial additive.
Eimeria tenella GD strains, having no resistance to various anticoccidial drugs. Breeding and amplifying in one chicken before the experiment, collecting fresh oocysts, sporulating, and preserving at 4° C. for later use.
Weighing the 14-day-old experiment chickens one by one, rejecting emaciated chickens or overweighted chickens, selecting healthy chickens of which the individual body weight difference is within 20 g, and dividing into 6 groups with 30 chickens in each group. Groups 1 and 2 are respectively a non-drug-applied and non-coccidium-killed control group and a coccidium-infected and non-drug-applied control group, and Groups 3-6 are respectively added with different anticoccidial drugs according to Table 4. Feeding with feed containing different drugs on the day of experiment grouping, enabling the chickens to freely take in the feed, and feeding the chickens until the experiment ends.
Except the non-coccidium-infected and non-drug-applied control group, giving each experiment chicken in each experiment group with 2.5×10^5 eimeria tenella sporulated oocysts via the crop on next day of the grouping day. During experiment, observing and recording the spirit, appetite, bloody feces situation, death count and the like of the chickens every day. Performing bloody feces scoring on the chickens in each group 5 days after infecting. On the 7th day, respectively weighing all the chickens in each group, then autopsying them, observing cecum lesions and counting the oocysts in the cecum.
The evaluation standard is the same with Embodiment 2.

SMILES	drug efficiency level judged from bloody feces scoring and anticoccidial index
CCCc1ncc(C[n+]2ccccc2C)c(N)n1 [amprolium, Amprolium, reference compound]	high-efficiency anticoccidial drugs (high-efficiency anticoccidial drugs if ACI≧180)
CCc1ncc(C[n+]2csc(CCF)c2C)c(N)n1 [fluoroethyl thiamine hydrochloride, 3-[(4-amino-2-ethyl-5-pyrimidyl)-methylene]-5-(2-fluoroethyl)-4-methyl thiazole chloride hydrochloride]	high-efficiency anticoccidial drugs (high-efficiency anticoccidial drugs if ACI≧180)
Cc1cc(C)nc(O)n1.O=C(Nc1ccc([N+](=O)[O-])cc1)Nc1ccc([N+](=O)[O-])cc1 [nicarbazin]	high-efficiency anticoccidial drugs (high-efficiency anticoccidial drugs if ACI≧180)
